Paper PMC6925385, “Dual role of a GTPase conformational switch for membrane fusion by mitofusin ubiquitylation” (Life Science Alliance, 2019)
Positions count from the first letter of the chain named. Results are given in words; binding and its absence hold for the method and conditions named. For part of these data: In cells and extracts the contact can be indirect. Some entries that bind do so weakly or less than the wild type. Where a sequence is shown, tags or fusion partners need not be part of it.

Amino acid sequences for entries named in this document (tags omitted).
UniProt P25694: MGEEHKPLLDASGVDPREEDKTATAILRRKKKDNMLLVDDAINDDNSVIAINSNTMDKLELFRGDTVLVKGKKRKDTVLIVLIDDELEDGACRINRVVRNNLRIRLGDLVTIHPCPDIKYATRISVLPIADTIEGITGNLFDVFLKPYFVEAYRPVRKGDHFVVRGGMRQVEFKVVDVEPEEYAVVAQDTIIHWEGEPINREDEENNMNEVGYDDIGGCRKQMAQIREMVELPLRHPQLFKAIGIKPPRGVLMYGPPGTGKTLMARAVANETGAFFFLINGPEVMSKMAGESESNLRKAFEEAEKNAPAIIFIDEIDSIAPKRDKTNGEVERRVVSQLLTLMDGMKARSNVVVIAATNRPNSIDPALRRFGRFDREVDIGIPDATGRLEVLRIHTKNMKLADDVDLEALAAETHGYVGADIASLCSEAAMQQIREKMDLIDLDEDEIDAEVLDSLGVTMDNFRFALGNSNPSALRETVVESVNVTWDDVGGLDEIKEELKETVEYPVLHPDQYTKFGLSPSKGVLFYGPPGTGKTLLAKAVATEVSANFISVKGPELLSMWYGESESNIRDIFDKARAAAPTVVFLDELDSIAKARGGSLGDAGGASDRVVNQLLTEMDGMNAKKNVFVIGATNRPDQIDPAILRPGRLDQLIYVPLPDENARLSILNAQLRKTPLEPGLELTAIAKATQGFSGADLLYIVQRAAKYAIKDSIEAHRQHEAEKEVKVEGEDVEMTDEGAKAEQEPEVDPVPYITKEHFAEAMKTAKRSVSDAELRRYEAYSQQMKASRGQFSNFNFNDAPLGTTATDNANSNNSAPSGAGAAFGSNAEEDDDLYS

Tests used:
[1] = target: T1, HA-tagged Fzo1^K398,382R (yeast (strains isogenic to S288c)) (UniProt P38297); assay: co-IP; crude membrane/mitochondrial fraction of yeast cells solubilized with 0.2% NG310 in TBS; HA-Fzo1 variants immunoprecipitated over night at 4°C, washed three times, blots with HA- and Cdc48-specific antibodies; wt and Δubp2 cells (Fig 3D, grown at 37°C) and Δfzo1 cells with plasmid-borne variants (Figs 4B, 5C)
T1 sequence (chain, conserved ubiquitylation pattern restored, at a lower level than wt): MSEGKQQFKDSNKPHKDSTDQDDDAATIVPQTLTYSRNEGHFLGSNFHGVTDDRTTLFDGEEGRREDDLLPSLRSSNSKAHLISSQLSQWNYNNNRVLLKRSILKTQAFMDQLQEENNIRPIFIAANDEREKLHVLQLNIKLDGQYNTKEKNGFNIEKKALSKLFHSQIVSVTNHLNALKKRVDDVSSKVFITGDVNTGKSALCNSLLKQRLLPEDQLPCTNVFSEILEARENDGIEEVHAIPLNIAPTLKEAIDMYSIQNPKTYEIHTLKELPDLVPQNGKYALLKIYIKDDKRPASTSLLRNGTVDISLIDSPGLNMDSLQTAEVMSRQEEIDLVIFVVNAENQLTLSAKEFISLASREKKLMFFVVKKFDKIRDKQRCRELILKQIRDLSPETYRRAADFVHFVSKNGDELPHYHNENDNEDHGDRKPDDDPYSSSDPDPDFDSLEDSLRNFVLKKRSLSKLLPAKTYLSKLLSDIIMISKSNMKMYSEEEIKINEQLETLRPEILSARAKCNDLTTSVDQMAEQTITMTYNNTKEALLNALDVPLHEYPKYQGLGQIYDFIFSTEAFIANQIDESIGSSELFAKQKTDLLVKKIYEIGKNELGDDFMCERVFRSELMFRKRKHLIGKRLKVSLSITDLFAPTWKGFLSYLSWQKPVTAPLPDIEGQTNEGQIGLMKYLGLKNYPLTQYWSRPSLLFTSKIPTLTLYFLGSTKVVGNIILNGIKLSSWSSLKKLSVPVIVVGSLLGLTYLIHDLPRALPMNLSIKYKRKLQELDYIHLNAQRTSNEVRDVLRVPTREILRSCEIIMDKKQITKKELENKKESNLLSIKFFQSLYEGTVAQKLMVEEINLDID

[2] = target: T2, HA-tagged Fzo1^K398,382,387R (yeast (strains isogenic to S288c)) (UniProt P38297); assay: as above
T2 sequence: T1 sequence (chain, conserved ubiquitylation pattern restored, at a lower level than wt) with K387R

[3] = target: HA-tagged Fzo1^K398R (yeast (strains isogenic to S288c)) (UniProt P38297); assay: sucrose gradient centrifugation; crude mitochondrial extracts solubilized with 1% digitonin at high protein density (pellet in 50 μl); 5-25% sucrose gradient, 14-16 h at 4°C; fractions blotted for HA; cells grown at 30°C and 37°C

Cdc48 (ubiquitin-specific AAA chaperone Cdc48/p97/VCP) (from UniProt P25694 1-835)
binding [1]: binds | binding [2]: no binding

B1: HA-tagged Fzo1^K398R (protein, UniProt P38297 1-855)
chain: T1 sequence (chain, conserved ubiquitylation pattern restored, at a lower level than wt) with R382K
modifications: ladder-like ubiquitylation on a residue other than K398
binding [3]: binds
